# Experimental data: the supplement of paper PMC11438910
# The other results are listed elsewhere or left out. The signal is at background level for most entries.
# B1: 3S41.2 (protein)
# chain 1: EVQLVESGGGLVQPGGSLRLSCATSGFTFRNYWMYWFRQAPGKGLDWVSSISDSSSNTFYSDSVKGRFTISRDNAKNTLYLQMNSLRAEDTAVYYCARRPIAAATGVYWYFDLWGPGTPITVSS
# chain 2: QAALTQPPSMSGSPGQSVTISCTGTSSDIGGYNRVSWYQQYPGKAPKLMIYEVSKRPSGVSDRFSGSKSGNTAALTISGLQAADEADYYCSSYAGSYTFVLFGGGTRLTVL
# What was measured:
# Test in all cases: fluorescence intensity of antibody binding to polysaccharide-coupled beads; higher = stronger binding
# [1] = biological target: pneumococcal polysaccharide Pn10A
# [2] = biological target: pneumococcal polysaccharide Pn10B
# [3] = biological target: pneumococcal polysaccharide Pn10C
# [4] = biological target: pneumococcal polysaccharide Pn10F
# [5] = biological target: pneumococcal polysaccharide Pn11A
# [6] = biological target: pneumococcal polysaccharide Pn11B
# [7] = biological target: pneumococcal polysaccharide Pn11C
# [8] = biological target: pneumococcal polysaccharide Pn11D
# [9] = biological target: pneumococcal polysaccharide Pn11F
# [10] = biological target: pneumococcal polysaccharide Pn12A
# [11] = biological target: pneumococcal polysaccharide Pn12B
# [12] = biological target: pneumococcal polysaccharide Pn12F
# [13] = biological target: pneumococcal polysaccharide Pn13
# [14] = biological target: pneumococcal polysaccharide Pn14
# [15] = biological target: pneumococcal polysaccharide Pn15A
# [16] = biological target: pneumococcal polysaccharide Pn15B
# [17] = biological target: pneumococcal polysaccharide Pn15C
# [18] = biological target: pneumococcal polysaccharide Pn15F
# [19] = biological target: pneumococcal polysaccharide Pn16A
# [20] = biological target: pneumococcal polysaccharide Pn16F
# [21] = biological target: pneumococcal polysaccharide Pn17A
# [22] = biological target: pneumococcal polysaccharide Pn17F
# [23] = biological target: pneumococcal polysaccharide Pn18A
# [24] = biological target: pneumococcal polysaccharide Pn18B
# [25] = antibody concentration 2337.65 ng/mL
# [26] = antibody concentration 12500 ng/mL
# [27] = antibody concentration 0.1 ng/mL
# [28] = antibody concentration 0.534724 ng/mL
# [29] = antibody concentration 2.8593 ng/mL
# [30] = antibody concentration 15.2894 ng/mL
# [31] = antibody concentration 81.7561 ng/mL
# [32] = antibody concentration 437.17 ng/mL
binder,measurement,setting,value
B1,fluorescence intensity,[1]; [25],34 MFI
same,fluorescence intensity,[1]; [26],67.8 MFI
same,fluorescence intensity,[2]; [27],23.2 MFI
same,fluorescence intensity,[2]; [28],23.5 MFI
same,fluorescence intensity,[2]; [29],23.5 MFI
same,fluorescence intensity,[2]; [30],23.8 MFI
same,fluorescence intensity,[2]; [31],23 MFI
same,fluorescence intensity,[2]; [32],25 MFI
same,fluorescence intensity,[2]; [25],28.5 MFI
same,fluorescence intensity,[2]; [26],40 MFI
same,fluorescence intensity,[3]; [27],17.5 MFI
same,fluorescence intensity,[3]; [28],16.5 MFI
same,fluorescence intensity,[3]; [29],16 MFI
same,fluorescence intensity,[3]; [30],16.5 MFI
same,fluorescence intensity,[3]; [31],16.5 MFI
same,fluorescence intensity,[3]; [32],18 MFI
same,fluorescence intensity,[3]; [25],20.2 MFI
same,fluorescence intensity,[3]; [26],30 MFI
same,fluorescence intensity,[4]; [27],19.8 MFI
same,fluorescence intensity,[4]; [28],19.5 MFI
same,fluorescence intensity,[4]; [29],19.5 MFI
same,fluorescence intensity,[4]; [30],20 MFI
same,fluorescence intensity,[4]; [31],20.8 MFI
same,fluorescence intensity,[4]; [32],20.8 MFI
same,fluorescence intensity,[4]; [25],21.5 MFI
same,fluorescence intensity,[4]; [26],26 MFI
same,fluorescence intensity,[5]; [27],28.2 MFI
same,fluorescence intensity,[5]; [28],31 MFI
same,fluorescence intensity,[5]; [29],27.2 MFI
same,fluorescence intensity,[5]; [30],29.5 MFI
same,fluorescence intensity,[5]; [31],29 MFI
same,fluorescence intensity,[5]; [32],31.2 MFI
same,fluorescence intensity,[5]; [25],40.2 MFI
same,fluorescence intensity,[5]; [26],53.5 MFI
same,fluorescence intensity,[6]; [27],26.5 MFI
same,fluorescence intensity,[6]; [28],28 MFI
same,fluorescence intensity,[6]; [29],26 MFI
same,fluorescence intensity,[6]; [30],25.8 MFI
same,fluorescence intensity,[6]; [31],27.8 MFI
same,fluorescence intensity,[6]; [32],29.5 MFI
same,fluorescence intensity,[6]; [25],34.5 MFI
same,fluorescence intensity,[6]; [26],43.2 MFI
same,fluorescence intensity,[7]; [27],22.2 MFI
same,fluorescence intensity,[7]; [28],22 MFI
same,fluorescence intensity,[7]; [29],22 MFI
same,fluorescence intensity,[7]; [30],22.5 MFI
same,fluorescence intensity,[7]; [31],23.2 MFI
same,fluorescence intensity,[7]; [32],25.5 MFI
same,fluorescence intensity,[7]; [25],65.5 MFI
same,fluorescence intensity,[7]; [26],393 MFI
same,fluorescence intensity,[8]; [27],23 MFI
same,fluorescence intensity,[8]; [28],23.5 MFI
same,fluorescence intensity,[8]; [29],23 MFI
same,fluorescence intensity,[8]; [30],24 MFI
same,fluorescence intensity,[8]; [31],24 MFI
same,fluorescence intensity,[8]; [32],24 MFI
same,fluorescence intensity,[8]; [25],41.5 MFI
same,fluorescence intensity,[8]; [26],170 MFI
same,fluorescence intensity,[9]; [27],14.5 MFI
same,fluorescence intensity,[9]; [28],14 MFI
same,fluorescence intensity,[9]; [29],15 MFI
same,fluorescence intensity,[9]; [30],14.5 MFI
same,fluorescence intensity,[9]; [31],14 MFI
same,fluorescence intensity,[9]; [32],14.5 MFI
same,fluorescence intensity,[9]; [25],18 MFI
same,fluorescence intensity,[9]; [26],30 MFI
same,fluorescence intensity,[10]; [27],15 MFI
same,fluorescence intensity,[10]; [28],14.5 MFI
same,fluorescence intensity,[10]; [29],15.5 MFI
same,fluorescence intensity,[10]; [30],15.5 MFI
same,fluorescence intensity,[10]; [31],14.5 MFI
same,fluorescence intensity,[10]; [32],18.5 MFI
same,fluorescence intensity,[10]; [25],21.5 MFI
same,fluorescence intensity,[10]; [26],49 MFI
same,fluorescence intensity,[11]; [27],15.5 MFI
same,fluorescence intensity,[11]; [28],15 MFI
same,fluorescence intensity,[11]; [29],16.5 MFI
same,fluorescence intensity,[11]; [30],16.5 MFI
same,fluorescence intensity,[11]; [31],16.5 MFI
same,fluorescence intensity,[11]; [32],17.5 MFI
same,fluorescence intensity,[11]; [25],22.5 MFI
same,fluorescence intensity,[11]; [26],52.2 MFI
same,fluorescence intensity,[12]; [27],18.5 MFI
same,fluorescence intensity,[12]; [28],18 MFI
same,fluorescence intensity,[12]; [29],20.2 MFI
same,fluorescence intensity,[12]; [30],18.8 MFI
same,fluorescence intensity,[12]; [31],17.5 MFI
same,fluorescence intensity,[12]; [32],21.2 MFI
same,fluorescence intensity,[12]; [25],30.2 MFI
same,fluorescence intensity,[12]; [26],100 MFI
same,fluorescence intensity,[13]; [27],19 MFI
same,fluorescence intensity,[13]; [28],18 MFI
same,fluorescence intensity,[13]; [29],19.5 MFI
same,fluorescence intensity,[13]; [30],19 MFI
same,fluorescence intensity,[13]; [31],19.5 MFI
same,fluorescence intensity,[13]; [32],18.5 MFI
same,fluorescence intensity,[13]; [25],26 MFI
same,fluorescence intensity,[13]; [26],62.2 MFI
same,fluorescence intensity,[14]; [27],14.5 MFI
same,fluorescence intensity,[14]; [28],15.5 MFI
same,fluorescence intensity,[14]; [29],15.5 MFI
same,fluorescence intensity,[14]; [30],14.2 MFI
same,fluorescence intensity,[14]; [31],16.5 MFI
same,fluorescence intensity,[14]; [32],19.8 MFI
same,fluorescence intensity,[14]; [25],63.2 MFI
same,fluorescence intensity,[14]; [26],544 MFI
same,fluorescence intensity,[15]; [27],13 MFI
same,fluorescence intensity,[15]; [28],12.5 MFI
same,fluorescence intensity,[15]; [29],12 MFI
same,fluorescence intensity,[15]; [30],12 MFI
same,fluorescence intensity,[15]; [31],12.8 MFI
same,fluorescence intensity,[15]; [32],13 MFI
same,fluorescence intensity,[15]; [25],14.5 MFI
same,fluorescence intensity,[15]; [26],20.5 MFI
same,fluorescence intensity,[16]; [27],18.8 MFI
same,fluorescence intensity,[16]; [28],19.8 MFI
same,fluorescence intensity,[16]; [29],18.5 MFI
same,fluorescence intensity,[16]; [30],18.5 MFI
same,fluorescence intensity,[16]; [31],18 MFI
same,fluorescence intensity,[16]; [32],20.8 MFI
same,fluorescence intensity,[16]; [25],29 MFI
same,fluorescence intensity,[16]; [26],41.5 MFI
same,fluorescence intensity,[17]; [27],18 MFI
same,fluorescence intensity,[17]; [28],18.2 MFI
same,fluorescence intensity,[17]; [29],18 MFI
same,fluorescence intensity,[17]; [30],16.2 MFI
same,fluorescence intensity,[17]; [31],18 MFI
same,fluorescence intensity,[17]; [32],18 MFI
same,fluorescence intensity,[17]; [25],20 MFI
same,fluorescence intensity,[17]; [26],31 MFI
same,fluorescence intensity,[18]; [27],17.5 MFI
same,fluorescence intensity,[18]; [28],17 MFI
same,fluorescence intensity,[18]; [29],18.5 MFI
same,fluorescence intensity,[18]; [30],17.2 MFI
same,fluorescence intensity,[18]; [31],16.8 MFI
same,fluorescence intensity,[18]; [32],18 MFI
same,fluorescence intensity,[18]; [25],22 MFI
same,fluorescence intensity,[18]; [26],38.2 MFI
same,fluorescence intensity,[19]; [27],15 MFI
same,fluorescence intensity,[19]; [28],14.5 MFI
same,fluorescence intensity,[19]; [29],13.5 MFI
same,fluorescence intensity,[19]; [30],14.8 MFI
same,fluorescence intensity,[19]; [31],15 MFI
same,fluorescence intensity,[19]; [32],15 MFI
same,fluorescence intensity,[19]; [25],18.5 MFI
same,fluorescence intensity,[19]; [26],33.5 MFI
same,fluorescence intensity,[20]; [27],24.5 MFI
same,fluorescence intensity,[20]; [28],24.5 MFI
same,fluorescence intensity,[20]; [29],23 MFI
same,fluorescence intensity,[20]; [30],24 MFI
same,fluorescence intensity,[20]; [31],26 MFI
same,fluorescence intensity,[20]; [32],26.5 MFI
same,fluorescence intensity,[20]; [25],30.5 MFI
same,fluorescence intensity,[20]; [26],44.5 MFI
same,fluorescence intensity,[21]; [27],21.2 MFI
same,fluorescence intensity,[21]; [28],21 MFI
same,fluorescence intensity,[21]; [29],20.5 MFI
same,fluorescence intensity,[21]; [30],21 MFI
same,fluorescence intensity,[21]; [31],21.5 MFI
same,fluorescence intensity,[21]; [32],21 MFI
same,fluorescence intensity,[21]; [25],23.2 MFI
same,fluorescence intensity,[21]; [26],30.5 MFI
same,fluorescence intensity,[22]; [27],26.5 MFI
same,fluorescence intensity,[22]; [28],26 MFI
same,fluorescence intensity,[22]; [29],26 MFI
same,fluorescence intensity,[22]; [30],27.5 MFI
same,fluorescence intensity,[22]; [31],26.5 MFI
same,fluorescence intensity,[22]; [32],27.5 MFI
same,fluorescence intensity,[22]; [25],28 MFI
same,fluorescence intensity,[22]; [26],33.5 MFI
same,fluorescence intensity,[23]; [27],24.5 MFI
same,fluorescence intensity,[23]; [28],23.5 MFI
same,fluorescence intensity,[23]; [29],25.5 MFI
same,fluorescence intensity,[23]; [30],24.5 MFI
same,fluorescence intensity,[23]; [31],24 MFI
same,fluorescence intensity,[23]; [32],24.5 MFI
same,fluorescence intensity,[23]; [25],26.5 MFI
same,fluorescence intensity,[23]; [26],36.5 MFI
same,fluorescence intensity,[24]; [27],30.5 MFI
same,fluorescence intensity,[24]; [28],30 MFI
